# Source: PubChem BioAssay (NCATS)
# Chains of the proteins cited; added tags and fusions are not shown.
# UniProt P09958, whole entry, looked up: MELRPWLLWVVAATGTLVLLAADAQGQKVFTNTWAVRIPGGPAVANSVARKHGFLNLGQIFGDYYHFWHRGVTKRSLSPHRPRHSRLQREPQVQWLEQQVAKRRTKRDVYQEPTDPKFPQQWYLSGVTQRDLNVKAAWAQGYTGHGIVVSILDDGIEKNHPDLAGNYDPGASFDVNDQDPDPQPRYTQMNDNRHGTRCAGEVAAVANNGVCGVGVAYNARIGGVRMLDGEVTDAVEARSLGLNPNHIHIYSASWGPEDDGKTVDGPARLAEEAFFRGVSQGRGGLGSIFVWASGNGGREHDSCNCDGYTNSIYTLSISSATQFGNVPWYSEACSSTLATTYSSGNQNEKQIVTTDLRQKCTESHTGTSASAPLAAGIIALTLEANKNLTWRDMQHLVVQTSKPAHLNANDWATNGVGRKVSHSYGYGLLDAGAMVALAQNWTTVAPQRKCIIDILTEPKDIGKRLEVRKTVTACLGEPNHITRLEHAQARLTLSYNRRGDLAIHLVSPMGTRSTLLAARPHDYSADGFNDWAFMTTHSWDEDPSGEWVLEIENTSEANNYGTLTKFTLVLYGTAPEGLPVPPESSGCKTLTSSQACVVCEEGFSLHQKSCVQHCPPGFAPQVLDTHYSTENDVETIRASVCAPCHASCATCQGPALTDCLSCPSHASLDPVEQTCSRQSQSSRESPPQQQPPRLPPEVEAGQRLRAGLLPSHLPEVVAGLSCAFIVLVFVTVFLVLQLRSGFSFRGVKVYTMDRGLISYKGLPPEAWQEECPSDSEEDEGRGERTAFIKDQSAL
# The inconclusive results got no clear call from the source; some entries with a clear call stand among them for comparison. For part of these data: Potencies of inconclusive entries are doubtful fits and often do not repeat. Activity calls are given as the source filed them. The call rests on the fitted dose curve; in most records, active means well fitted curve in the direction sought with a large enough effect; inconclusive means small, poorly fitted or top-dose-only effect, or another doubt; inactive means no such curve, though single readings can be large; an effect the other way counts as inactive or inconclusive.
# Key:
# [1] = qHTS of pediatric cancer cell lines to identify multiple opportunities for drug repurposing: Confirmatory screen for LAN-5 cells (AID 1347113); further: nearly all actives have a fitted effect of over 65% in size; further: potency means the concentration at half of the fitted maximal effect
# How it was run: (§1)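 Cells (500-1,000/well) in growth media were settled 5 h at 37 degrees C, then given compounds for 48 h. Viability was read as CellTiter-Glo luminescence. Primary runs used MIPE at 11 points (0.78 nM-46 µM) and NPC at 8 points (0.59 nM-46 µM); follow-ups used 11 points.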
# [2] = qHTS of pediatric cancer cell lines to identify multiple opportunities for drug repurposing: Confirmatory screen for NB-EBc1 cells (AID 1347115);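 further: cells exposed to compound for 48 h before the viability read; nearly all actives have a fitted effect of over 45% in size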; further: potency means the concentration at half of the fitted maximal effect; on activity change, negative = cytotoxic: on the % scale 0 is the no-effect control and ±100 the full control effect
# How it was run: as §1
# [3] = qHTS of pediatric cancer cell lines to identify multiple opportunities for drug repurposing: Confirmatory screen for SJ-GBM2 cells (AID 1347116); further: nearly all actives have a fitted effect of over 60% in size; further: potency means the concentration at half of the fitted maximal effect;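 on activity change, negative = cytotoxic: plate controls were DMSO for no effect and bortezomib for full effect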
# How it was run: (§2)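 Viability measured as metabolically active cells via CellTiter-Glo luminescence following 48 hours of compound exposure, 11-point dilutions in confirmatory testing. 500-1,000 cells/well plated 5 hours before dosing; controls were DMSO and 2.3 µM bortezomib.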
# [4] = qHTS of pediatric cancer cell lines to identify multiple opportunities for drug repurposing: Confirmatory screen for BT-37 cells (AID 1347117); further: nearly all actives have a fitted effect of over 55% in size; further: potency means the concentration at half of the fitted maximal effect
# How it was run: as §1
# [5] = qHTS of pediatric cancer cell lines to identify multiple opportunities for drug repurposing: Confirmatory screen for TC32 cells (AID 1347118);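 further: cells exposed to compound for 48 h before the read; nearly all actives have a fitted effect of over 65% in size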; further: potency means the concentration at half of the fitted maximal effect; on activity change, negative = cytotoxicity: on the % scale 0 is the no-effect control and ±100 the full control effect
# How it was run: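 TC32 cells, 500-1,000/well in growth medium, compound-treated 48 h at 37 °C; viability from CellTiter-Glo luminescence. Primary screen: MIPE 11-point (0.78 nM–46 µM final), NPC 8-point (0.59 nM–46 µM final); confirmatory at 11-point dilutions.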
# [6] = qHTS of pediatric cancer cell lines to identify multiple opportunities for drug repurposing: Confirmatory screen for RD cells (AID 1347124); details: RD rhabdomyosarcoma cell viability; activity change, negative = cytotoxic: at 45.9 µM (top of the series);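 further: cells exposed to compound for 48 h before viability readout; nearly all actives have a fitted effect of over 65% in size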; further: potency means the concentration at half of the fitted maximal effect
# How it was run: as §1
# [7] = qHTS of pediatric cancer cell lines to identify multiple opportunities for drug repurposing: Confirmatory screen for Rh18 cells (AID 1347125); further: nearly all actives have a fitted effect of over 55% in size; further: potency means the concentration at half of the fitted maximal effect; on activity change, negative = cytotoxic: on the % scale 0 is the no-effect control and ±100 the full control effect
# How it was run: as §1
# [8] = qHTS of pediatric cancer cell lines to identify multiple opportunities for drug repurposing: Confirmatory screen for Rh30 cells (AID 1347126); further: nearly all actives have a fitted effect of over 55% in size; further: potency means the concentration at half of the fitted maximal effect
# How it was run: as §1
# [9] = qHTS of pediatric cancer cell lines to identify multiple opportunities for drug repurposing: Confirmatory screen for Saos-2 cells (AID 1347127); further: potency means the concentration at half of the fitted maximal effect; nearly all actives have a fitted effect of over 60% in size
# How it was run: as §1
# [10] = qHTS of pediatric cancer cell lines to identify multiple opportunities for drug repurposing: Confirmatory screen for OHS-50 cells (AID 1347128);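 further: compound exposure lasted 48 h at 37 degrees C; nearly all actives have a fitted effect of over 55% in size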; further: potency means the concentration at half of the fitted maximal effect
# How it was run: as §1
# [11] = qHTS of pediatric cancer cell lines to identify multiple opportunities for drug repurposing: Confirmatory screen for MG 63 (6-TG R) cells (AID 1347119); details: MG-63 (6-TG resistant) osteosarcoma viability; activity change, negative = cytotoxicity: at 45.9 µM (top of the series); further: nearly all actives have a fitted effect of over 55% in size; further: potency means the concentration at half of the fitted maximal effect;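 on activity change, negative = cytotoxicity: plate controls were DMSO neutral control for no effect and bortezomib for full effect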
# How it was run: as §1
# [12] = qHTS of pediatric cancer cell lines to identify multiple opportunities for drug repurposing: Confirmatory screen for U-2 OS cells (AID 1347122); further: nearly all actives have a fitted effect of over 65% in size; further: potency means the concentration at half of the fitted maximal effect;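 on activity change, negative = cytotoxicity: plate controls were DMSO for no effect and bortezomib for full effect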
# How it was run: as §1
# [13] = qHTS of pediatric cancer cell lines to identify multiple opportunities for drug repurposing: Confirmatory screen for DAOY cells (AID 1347114); further: nearly all actives have a fitted effect of over 65% in size; further: potency means the concentration at half of the fitted maximal effect; on activity change, negative = cytotoxic: on the % scale 0 is the no-effect control and ±100 the full control effect
# How it was run: as §2
# [14] = qHTS of pediatric cancer cell lines to identify multiple opportunities for drug repurposing: Confirmatory screen for control Hh wild type fibroblast cells (AID 1347121); further: nearly all actives have a fitted effect of over 70% in size; further: potency means the concentration at half of the fitted maximal effect
# How it was run: as §1
# [15] = qHTS of pediatric cancer cell lines to identify multiple opportunities for drug repurposing: Confirmatory screen for SK-N-SH cells (AID 1347129);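 further: cells exposed to compound for 48 h before viability read; nearly all actives have a fitted effect of over 60% in size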; further: potency means the concentration at half of the fitted maximal effect;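 on activity change, negative = cytotoxic: plate controls were DMSO for no effect and bortezomib control for full effect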
# How it was run: as §1
# [16] = qHTS of pediatric cancer cell lines to identify multiple opportunities for drug repurposing: Confirmatory screen for Rh41 cells (AID 1347123);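 further: 48 h compound exposure; nearly all actives have a fitted effect of over 60% in size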; further: potency means the concentration at half of the fitted maximal effect;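 on activity change, negative = cytotoxic: plate controls were DMSO for no effect and bortezomib for full effect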
# How it was run: as §1
# [17] = tested on: Zika virus NS2B-NS3 protease (unlinked); assay: Optimization of GU AMC qHTS for Zika virus inhibitors: Unlinked NS2B-NS3 protease assay (AID 1347151);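 further: 0% = no-inhibitor control and -100% = no-enzyme control; nearly all actives have a fitted effect of over 80% in size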
# How it was run: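 Fluorescence gain (340/450 nm) over 15 min at room temperature, ~20% conversion, gave percent inhibition fitted to a 4-parameter Hill equation; enzyme was unlinked NS2B-NS3 (25 nM final), pH 8.0 Tris buffer.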
# [18] = biological target: Furin (Homo sapiens) (UniProt P09958); assay: Furin counterscreen qHTS for Zika virus inhibitors (AID 1347149); further: potency means the concentration at half of the fitted maximal effect; nearly all actives have a fitted effect of over 70% in size
# How it was run: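 Counterscreen measures cleavage of 2 microM BOC-RVRR-AMC, below its ~15 microM Km, by 5 nM full-length human furin at pH 7.0 after a 15-min compound preincubation. Inhibition derives from the 15-min fluorescence increase at 37C.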
SMILES,Potency [1],Potency [2],Potency [3],Potency [4],Potency [5],Potency [6],Potency [7],Potency [8],Potency [9],Potency [10],Potency [11],Potency [12],Potency [13],Potency [14],Potency [15],Potency [16],Potency [17],Potency [18],"activity change, negative = cytotoxic [6]"
COc1ccc(C(=O)c2c(C)n(CCN3CCOCC3)c3cc(I)ccc23)cc1,"inconclusive: 10.4 µM [cytotoxic, single point]","inconclusive: 16.5 µM [cytotoxic, partial curve]","inconclusive: 36.9 µM [cytotoxic, single point]","inconclusive: 32.9 µM [cytotoxic, single point]","inconclusive: 26.1 µM [cytotoxic, single point]","inconclusive: 32.9 µM [cytotoxic, single point]","inconclusive: 14.7 µM [cytotoxic, partial curve, poor fit]","inconclusive: 16.5 µM [cytotoxic, partial curve]","inconclusive: 23.3 µM [cytotoxic, single point]","inconclusive: 23.3 µM [cytotoxic, single point]",,,,,,,,,
COC1=CC(C)=C[C@@H](C)[C@@H](O)[C@@H](C)CC(C)=CC=C[C@H](OC)[C@H]([C@@H](C)[C@@H](O)[C@H](C)[C@@]2(O)C[C@@H](O)[C@H](C)[C@@H](C(C)C)O2)OC1=O,"inconclusive: 11.7 µM [cytotoxic, single point]","inconclusive: 11.7 µM [cytotoxic, single point]","inconclusive: 11.7 µM [cytotoxic, single point]","inconclusive: 11.7 µM [cytotoxic, single point]","inconclusive: 10.4 µM [cytotoxic, single point]","inconclusive: 10.4 µM [cytotoxic, single point]","inconclusive: 11.7 µM [cytotoxic, single point]",,"inconclusive: 9.27 µM [cytotoxic, single point]","inconclusive: 9.27 µM [cytotoxic, single point]",inactive,inactive,,,,,,,
C[C@@H]1[C@@H](C(=O)C[C@H]2O[C@@H]3O[C@]4(C)CC[C@@H]5[C@H](C)CC[C@@H]([C@H]2C)[C@@]35OO4)O[C@@H]2O[C@]3(C)CC[C@H]4[C@H](C)CC[C@@H]1[C@@]24OO3,"inconclusive: 11.7 µM [cytotoxic, full curve, poor fit]","inconclusive: 2.93 µM [cytotoxic, full curve]","inconclusive: 5.85 µM [cytotoxic, partial curve]",,,,inactive,active: 13.1 µM,"inconclusive: 1.65 µM [cytotoxic, full curve]","inconclusive: 1.31 µM [cytotoxic, full curve]","inconclusive: 5.22 µM [cytotoxic, full curve]","inconclusive: 4.65 µM [cytotoxic, full curve]",inactive,inactive,"inconclusive: 4.18 µM [cytotoxic, full curve]",,,,
CC=C(C)C(=O)O[C@H]1C(C)=C2[C@@H]3OC(=O)[C@@](C)(O)[C@@]3(O)[C@@H](OC(=O)CCC)C[C@](C)(OC(C)=O)[C@@H]2[C@@H]1OC(=O)CCCCCCC,"inconclusive: 0.369 µM [rising, partial curve, poor fit]",inactive,"inconclusive: 2.61 µM [rising, full curve, poor fit]",,inactive,,inactive,"inconclusive: 1.17 µM [rising, partial curve, poor fit]","inconclusive: 10.4 µM [rising, partial curve, poor fit]","inconclusive: 0.0465 µM [rising, full curve, poor fit]",,inactive,,,,,,,
COc1ccc(C(=O)N2CCCC2=O)cc1,"inconclusive: 23.3 µM [rising, partial curve, poor fit]","inconclusive: 36.9 µM [cytotoxic, single point]","inconclusive: 36.9 µM [cytotoxic, single point]","inconclusive: 36.9 µM [cytotoxic, single point]",,"inconclusive: 32.9 µM [cytotoxic, single point]","inconclusive: 36.9 µM [cytotoxic, single point]","inconclusive: 36.9 µM [cytotoxic, single point]",,"inconclusive: 0.0012 µM [rising, full curve]",,inactive,inactive,,,inactive,inactive,,
C[C@]12Cc3cn[nH]c3C[C@@H]1CC[C@@H]1[C@H]2CC[C@@]2(C)[C@H]1CC[C@]2(C)O,"inconclusive: 36.9 µM [cytotoxic, single point]",,inactive,"inconclusive: 0.827 µM [cytotoxic, full curve, poor fit]","inconclusive: 5.22 µM [cytotoxic, partial curve, poor fit]","inconclusive: 0.827 µM [cytotoxic, partial curve, poor fit]",inactive,"inconclusive: 32.9 µM [cytotoxic, single point]","inconclusive: 1.04 µM [cytotoxic, full curve, poor fit]",inactive,inactive,inactive,"inconclusive: 10.4 µM [cytotoxic, partial curve]",inactive,,inactive,,,
O=C(O)CCCc1ccc(N(CCCl)CCCl)cc1,"inconclusive: 26.1 µM [cytotoxic, single point]",,"inconclusive: 0.928 µM [rising, full curve]","inconclusive: 18.5 µM [cytotoxic, partial curve, poor fit]","inconclusive: 23.3 µM [cytotoxic, single point]",,,inactive,"inconclusive: 0.117 µM [rising, full curve, poor fit]",inactive,"inconclusive: 16.5 µM [cytotoxic, partial curve, poor fit]",,inactive,"inconclusive: 0.0329 µM [rising, full curve, poor fit]",inactive,inactive,,,
COc1ccc2c(c1)CN(C)CC2c1ccc(Cl)c(Cl)c1 (configuration not stated),"inconclusive: 36.9 µM [cytotoxic, single point]","inconclusive: 16.5 µM [cytotoxic, partial curve]",active: 1.47 µM,,,"inconclusive: 0.165 µM [cytotoxic, full curve, poor fit]","inconclusive: 18.5 µM [cytotoxic, partial curve]","inconclusive: 2.61 µM [cytotoxic, full curve, poor fit]",active: 23.3 µM,,"inconclusive: 18.5 µM [cytotoxic, partial curve]",,"inconclusive: 20.8 µM [cytotoxic, partial curve]",,"inconclusive: 20.9 µM [cytotoxic, single point]",active: 18.5 µM,,,
O=C1C(I)=CC(=C(c2cc(I)c(O)c(I)c2)c2ccccc2C(=O)O)C=C1I,"inconclusive: 0.0021 µM [rising, full curve]",,"inconclusive: 0.293 µM [rising, full curve, poor fit]",inactive,"inconclusive: 26.1 µM [cytotoxic, partial curve, poor fit]",inactive,inactive,"inconclusive: 11.7 µM [cytotoxic, partial curve, poor fit]",,inactive,,"inconclusive: 14.7 µM [cytotoxic, partial curve, poor fit]","inconclusive: 4.14 µM [cytotoxic, partial curve, poor fit]",,,,,"inconclusive: 26.4 µM [inhibitor, full curve]",
CCC(=O)OC1CCC2C3CCC4=CC(=O)CC[C@@]4(C)C3CC[C@]12C (some centres not stated),inactive,inactive,inactive,,"inconclusive: 23.3 µM [cytotoxic, single point]",,inactive,inactive,,,,,inactive,,,"inconclusive: 16.5 µM [cytotoxic, partial curve, poor fit]",,,
CC(NC(C)(C)C)C(=O)c1cccc(Cl)c1 (configuration not stated),"inconclusive: 14.7 µM [cytotoxic, partial curve, poor fit]","inconclusive: 0.0021 µM [rising, full curve, poor fit]","inconclusive: 9.27 µM [rising, single point]",,,"inconclusive: 5.85 µM [cytotoxic, partial curve]",inactive,"inconclusive: 4.14 µM [cytotoxic, partial curve, poor fit]",,"inconclusive: 26.1 µM [cytotoxic, single point]",inactive,,"inconclusive: 9.27 µM [cytotoxic, single point]",inactive,,,,,
CC=C(C)C(=O)N[C@@H](c1ccccc1)[C@@H](O)C(=O)O[C@H]1C[C@@]2(O)[C@@H](OC(=O)c3ccccc3)[C@@H]3[C@]4(OC(C)=O)CO[C@@H]4C[C@H](O)[C@@]3(C)C(=O)[C@H](OC(C)=O)C(=C1C)C2(C)C,inactive,"inconclusive: 0.261 µM [cytotoxic, full curve]","inconclusive: 0.522 µM [cytotoxic, partial curve, poor fit]",active: 0.0522 µM,"inconclusive: 0.0261 µM [cytotoxic, full curve, poor fit]",,inactive,"inconclusive: 0.0165 µM [cytotoxic, full curve, poor fit]",,,,"inconclusive: 0.0208 µM [cytotoxic, full curve, poor fit]","inconclusive: 0.0233 µM [cytotoxic, full curve, poor fit]",,"inconclusive: 0.132 µM [cytotoxic, full curve]","inconclusive: 0.0147 µM [cytotoxic, full curve, poor fit]",,,inconclusive: -89.4%
